Measured values reported in PubChem BioAssay AID2685 (National Center for Advancing Translational Sciences (NCATS), 2010).
The other results are listed elsewhere or left out. The main result of the screen is listed elsewhere. These columns were measured beside it and carry no call. The list favours compounds with an active or inconclusive main result. Potencies come from curve fits of mixed quality, noted in brackets.

Test: qHTS Assay for Lipid Storage Modulators in Drosophila S3 Cells;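 on cell number change: cells counted by Cell Tracker Red CMTPX staining in the red channel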
Conditions: BODIPY lipid droplet fluorescence, 18-24 h; for cell number change: measured here: cell count max response, cells fed with added oleic acid
Procedure, shortened: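 Drosophila S3 cells got compounds at several concentrations plus oleic acid (400 uM solution). Laser-scanning cytometry with 488 nm excitation read lipid droplets at 500-530 nm and cells at 575-640 nm. Percent activity was relative to 20 uM Triacsin C.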

[1] = measured here: lipid fluorescence (Fed channel) AC50, cells fed with added oleic acid
[2] = measured here: cell number channel AC50, cells fed with added oleic acid

| SMILES | AC50 [1] | cell number change | AC50 [2] |
| --- | --- | --- | --- |
| Cc1ccc(C(=O)CSc2nnc(-c3cccs3)n2C)o1 | 14.6 µM [rising, single point] |  |  |
| COc1ccc(CC(=O)Nc2ccc(/C(C)=N/NC(=O)c3ccc(OC)cc3OC)cc2)cc1 |  | -21.8% | 0.13 µM [falling, full curve, poor fit] |
| CCOC(=O)CCSc1nc(C)cc(C(F)(F)F)c1C#N | 0.0058 µM [falling, full curve, poor fit] | -1.49% |  |
| CC(=O)Nc1ccc(C(=O)N/C(=C/c2ccccc2)C(=O)N2CCCCC2)cc1 |  | 2.56% |  |
| Cn1c(C(=O)NCC2CCCO2)cc2oc3ccccc3c21 (stereo not drawn) | 1.16 µM [falling, partial curve] |  |  |
| Cc1ccc(CSCCNS(C)(=O)=O)cc1 |  | 0.336% |  |
| CCOc1cc(/C=C/c2ccc3cccc([N+](=O)[O-])c3n2)ccc1O | 25.9 µM [rising, single point] | 5.49% | 0.461 µM [falling, partial curve, poor fit] |
| CCc1cc2c(=O)n3c(nc2s1)-c1[nH]c2ccc(OC)cc2c1CC3 | 18.4 µM [rising, single point] | -7.45% |  |
| COc1ccccc1OCCN1C(=O)S/C(=C\c2ccco2)C1=O |  | -10.7% |  |
| COCCn1c(-c2ccc(F)cc2)nc2cccnc21 | 0.103 µM [rising, full curve, poor fit] | 9.93% | 1.64 µM [rising, partial curve] |
| CCOc1ccc(N(C(=O)c2snc(C(N)=O)c2N)C(C(=O)NCC2CCCO2)c2ccco2)cc1 (stereo not drawn) | 0.13 µM [rising, full curve, poor fit] | 29.4% |  |
| CN(C)c1ccc(C(C(=O)NCC2CCCO2)N(Cc2ccccc2)C(=O)c2snc(C(N)=O)c2N)cc1 (stereo not drawn) |  | 1.28% | 2.59 µM [rising, partial curve] |
| CCCn1c(=O)c2ccccc2n2c(SCCOc3ccccc3F)nnc12 | 2.91 µM [rising, partial curve] |  | 2.31 µM [rising, partial curve] |
| Cc1ccccc1NC(=O)Cc1nnc(SCC(=O)NC2CCCCC2)n1C | 6.51 µM [falling, single point] |  |  |
| O=c1c2c(nc3cc(-c4cccc(Cl)c4)[nH]n13)CCCC2 | 18.4 µM [falling, partial curve] | -42.4% | 14.6 µM [falling, partial curve] |
| Cn1c(N2CCCC2)nc2c1c(=O)n(Cc1cccc(F)c1)c(=O)n2C | 1.03 µM [rising, single point] | -8.77% |  |
| CC(=O)NC(O)C(=O)c1ccco1 (stereo not drawn) |  | -15.9% | 6.51 µM [rising, single point] |
| COc1cc2nc(CC(C)C)n(NC(=O)c3ccccc3)c(=O)c2cc1OC | 3.66 µM [rising, single point] | 13% |  |
| O=C(NCCCCCNC(=O)c1ccccn1)c1ccccn1 | 1.64 µM [rising, full curve, poor fit] | 20% |  |
| CCN(CC)S(=O)(=O)c1ccc(N2CC(C(=O)NCc3cccnc3)CC2=O)cc1 (stereo not drawn) |  | -0.42% |  |

| SMILES | AC50 [1] | cell number change | AC50 [2] |
| --- | --- | --- | --- |
| CCn1c(C)nc2cc(C(=O)N=Nc3c(O)[nH]c4ccccc34)ccc21 | 4.11 µM [rising, partial curve] | 500% |  |
| O=S(=O)(CCN1CCN(C(c2ccccc2)c2ccccc2)CC1)C(F)(F)F |  | -11% |  |
| CCC(=O)N1CCN(c2ccc(NC(=O)COc3ccc(CC)cc3)cc2)CC1 |  | 33.9% | 32.6 µM [rising, single point] |
| CN(C)S(=O)(=O)c1ccc(N2CCCC2)c(C(=O)Nc2nc(-c3ccc(F)c(F)c3)cs2)c1 | 2.59 µM [rising, full curve] | 32.3% | 2.91 µM [rising, full curve, poor fit] |
| O=C(Cn1ncc2c(=O)oc3ccccc3c21)N1CCCc2ccccc21 | 10.3 µM [rising, partial curve] | -15% |  |
| O=C(NCc1ccco1)c1cccc(NS(=O)(=O)c2cccc(F)c2)c1 |  | -1.57% |  |
| O=C(Nc1ccccc1)c1cc2ccccc2c(=O)s1 | 0.116 µM [falling, full curve, poor fit] | -0.437% |  |
| CCCN1CCC(NC(=O)Cc2ccccc2OC)CC1 | 6.51 µM [rising, partial curve, poor fit] | 6.61% |  |
| CCN(CC)S(=O)(=O)c1cccc(-c2nnc(SCCOc3ccccc3)o2)c1 | 29.1 µM [falling, single point] |  |  |
| O=C(CSc1nccn1-c1ccccc1)Nc1ccc2c(c1)OCO2 |  | 37.5% | 1.84 µM [rising, partial curve, poor fit] |
| CC(OC(=O)c1ccc([N+](=O)[O-])o1)C(=O)NC1CCCCC1C (stereo not drawn) | 0.103 µM [falling, full curve, poor fit] | -11% |  |
| COc1cc2c(cc1OC)C1O[C@](CCCCN3C(=O)c4ccccc4C3=O)(C2)Oc2cc(C)n(Cc3ccccc3)c(=O)c21 | 6.68 µM [falling, single point] | -29% |  |
| COc1ccccc1OCCCCn1c(C(C)O)nc2ccccc21 (stereo not drawn) |  | -12.4% |  |
| COc1ccccc1C(C)NS(=O)(=O)c1cccs1 (stereo not drawn) | 0.0058 µM [falling, full curve, poor fit] | 4.03% |  |
| Cc1ccc(CSC(Nc2ccc(F)cc2)=C(C#N)C#N)cc1 | 23.1 µM [falling, partial curve] | -34% | 6.51 µM [falling, full curve, poor fit] |
| CCSc1nnc(NC(=O)c2csc3c2CCCC3)s1 | 29.1 µM [falling, partial curve] | -12.9% | 0.184 µM [falling, full curve, poor fit] |
| CCOC(=O)N1CCN(S(=O)(=O)c2c(C(=O)N3CCCCC3)c(C)n(C)c2C)CC1 |  | 23% | 6.51 µM [falling, single point] |
| Cc1ccc(/C=C/C(=O)NCc2cccs2)o1 | 29.1 µM [rising, single point] | 18.8% |  |
| O=C(CCS(=O)(=O)Cc1ccc(Cl)cc1)NCCCN1CCN(c2ccccc2F)CC1 |  |  | 6.51 µM [rising, single point] |
| Cc1ccc2sc(N(CCCN(C)C)C(=O)c3ccc(S(=O)(=O)N(C)C)cc3)nc2c1C | 11.6 µM [falling, single point] | -13.1% |  |

| SMILES | AC50 [1] | cell number change | AC50 [2] |
| --- | --- | --- | --- |
| O=C(O)c1ccccc1NC(=S)NC(=O)c1cccc2ccccc12 | 2.31 µM [falling, single point] |  |  |
| COc1ccccc1C(=O)Nc1sc2c(c1C#N)CCC2 | 6.51 µM [falling, single point] | -14.1% |  |
| C/C(=N\Nc1ccccn1)c1ccc(N2CCOCC2)cc1 | 29.1 µM [rising, single point] | 51% | 2.06 µM [rising, full curve] |
| CC1CN(C(=O)Nc2ccc(Br)cc2Cl)CC(C)O1 (stereo not drawn) | 0.562 µM [falling, single point] | 18.1% |  |
| CCn1cc(/C=C/C(=O)Nc2c(C)nn(Cc3ccccc3)c2C)cn1 |  | 16.7% | 3.66 µM [rising, single point] |
| COc1ccc(C2=Nn3c(nnc3C(F)(F)F)SC2)cc1 | 0.00461 µM [falling, full curve, poor fit] | 5.71% |  |
| COc1cc2c(cc1OC)[C@@H]1O[C@](CCCCN3C(=O)c4ccccc4C3=O)(C2)Oc2cc(C)n(-c3ccccc3)c(=O)c21 |  | -17.2% |  |
| Cc1cc(C(=O)Nc2ccc3c(c2)OCCO3)c(C)o1 | 3.26 µM [falling, partial curve] | 20.7% |  |
| CCOCCCN(C(=O)c1snc(C(N)=O)c1N)C(C(=O)NC1CCCC1)c1ccc(F)cc1 (stereo not drawn) |  | -1.32% |  |
| O=C(c1cccc(Cl)c1)N(Cc1cccs1)C1CCS(=O)(=O)C1 (stereo not drawn) | 0.13 µM [falling, full curve, poor fit] | -4.46% | 0.651 µM [falling, full curve, poor fit] |
| CCCNC(=O)OC[C@H]1O[C@H](CCO/N=C/C[C@@H]2C=C[C@H](OC(C)=O)[C@@H](COC(C)=O)O2)C=C[C@@H]1Oc1ccc(OC)cc1 | 29.1 µM [falling, single point] | -30.3% | 29.1 µM [falling, single point] |
| O=C1CSC(c2ccccc2F)N1CCN1CCCCC1 (stereo not drawn) |  | 3.28% | 0.58 µM [rising, single point] |
| COc1ccccc1C1=NN(C2=NN=C(N)Cc3ncnn32)C(O)(C(F)(F)F)C1 (stereo not drawn) | 20.6 µM [rising, partial curve] | 72.7% | 16.4 µM [rising, partial curve] |
| O=C(Nc1ccc(N2CCCC2)cc1)c1cccc(Cl)c1 | 0.0651 µM [rising, full curve, poor fit] | 16.9% |  |
| Cc1ccc(C(=O)Nc2ccc(N3CCN(C)CC3)cc2)cc1 |  | 11.6% |  |
| O=C(O)C1CC(O)CN1C(=O)c1ccco1 (stereo not drawn) | 13 µM [falling, partial curve] | -36.6% | 8.2 µM [falling, partial curve] |
| Cc1ccc(S(=O)(=O)N2CCCN(C(=O)CNC(=O)c3ccccc3)CC2)cc1 |  | -0.803% |  |
| COc1ccc(CCNc2ccc(C(CC(N)=O)NC(=O)c3cc(C)cc(C)c3)cc2[N+](=O)[O-])cc1 (stereo not drawn) | 0.651 µM [rising, single point] | 3.59% |  |
| CCn1c(NN)nc2sc3c(c2c1=O)CCC3 | 0.146 µM [rising, full curve, poor fit] | 91.4% | 8.2 µM [rising, partial curve] |

Look-ups from the results shown.
Value for CCCNC(=O)OC[C@H]1O[C@H](CCO/N=C/C[C@@H]2C=C[C@H](OC(C)=O)[C@@H](COC(C)=O)O2)C=C[C@@H]1Oc1ccc(OC)cc1 under AC50 [2]: 29.1 µM [falling, single point]
Value for COc1ccccc1C1=NN(C2=NN=C(N)Cc3ncnn32)C(O)(C(F)(F)F)C1 (stereo not drawn) under cell number change: 72.7%
Value for COc1ccc(C2=Nn3c(nnc3C(F)(F)F)SC2)cc1 under AC50 [1]: 0.00461 µM [falling, full curve, poor fit]
